Library screen at single concentrations

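Growth of Mycobacterium tuberculosis over 4 days (cholesterol / DPPC medium with tyloxapol); the read-out is not stated. Compounds at 50 µM. The record gives no direction; compounds that gave an IC50 in retests scored well above the rest, so higher reads as more growth inhibition. About 69,000 compounds were tested under these conditions; 0.54% (about 370) showed 50% or more at least once.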

Each number is a percent effect as filed.
The controls that fix the scale are not given in the record; negative values are as filed.
The compounds are a random part of those screened.
Two or more numbers in one place are separate tests of the same structure; such repeats can differ widely.

structure,percent effect
COCC(=O)N1CCOCC2(CCN(Cc3cccs3)C2)C1.O=C(O)C(F)(F)F (stereo unspecified),-35.95
Cc1cc(C)c2c(c1)C(NC(=O)CSCc1ccncc1)CCO2 (stereo unspecified),-11.53
O=C1CC2(CCN(S(=O)(=O)c3cccs3)C2)CN1c1cccc(F)c1 (stereo unspecified),5.506
N#CC(NC(=O)CC(F)(F)F)c1ccsc1 (stereo unspecified),-4.997
Cc1c(Br)cccc1C(=O)NCC1CCNCC1.Cl,-1.765
CC[C@H]1COCCN1C(=O)c1cnc(N2CCN(C)CC2)nc1C,-0.9991
CCC(CC)NC(=O)c1cccnc1-n1cccn1,-12.85
Cn1cccc1-c1cc(C(=O)N2CCCC2c2cccnc2)[nH]n1 (stereo unspecified),11.34
Cc1cc(C(=O)N2CCN(Cc3ccsc3)CC2)c(C)n1C1CC1,13.01
NCCn1cc(C(=O)N2CCCCCC2c2cccc(F)c2)nn1 (stereo unspecified),-1.333
CC(C)CCN1CCN(Cc2nc(C(C)C)no2)CC1,25.57
CC(C)CN1CCc2[nH]cnc2C12CCN(C(=O)c1cc[nH]n1)CC2,-1.989
Cc1nc(CN2CCCC2Cn2cccn2)nc2ccccc12 (stereo unspecified),-0.922
COc1ccc(C)cc1CN1CCN(Cc2nccn2C)C(C)C1 (stereo unspecified),20.27
[H][C@@]12CCN(Cc3sccc3C)[C@]1([H])CC[C@@H](C(=O)N1CCCO1)O2,10.29
Cc1cccn2cc(CC(=O)N(CCN(C)C)CC3CCCO3)nc12 (stereo unspecified),6.87
CC(=O)N1CCN(C(=O)NCc2csc(Br)c2)CC1,-1.304
CC(C)CN(Cc1ccccn1)Cc1ccccc1OCC(=O)O,-0.6664
CCN(CC)S(=O)(=O)CCNC(=O)N(C)C(C)c1ccccn1 (stereo unspecified),-112.5 & -2.828
COC(=O)c1ccc(C(=O)NS(=O)(=O)c2cncc(Br)c2)cc1,-16.15
Cc1cc2c(=O)n3c(nc2s1)CCN(Cc1ccncc1)CC3,-15.01
CC(CNC(=O)CCn1cncn1)N1CCc2ccccc21 (stereo unspecified),-4.441
O=C(NCC1COCc2c(-c3ccncc3)nnn2C1)[C@H]1CCCO1.O=C(O)C(F)(F)F (stereo partly specified),8.463
CCc1ccc(C(=O)N2CCC(c3nncn3CC)CC2)s1,-9.323
Nc1nc(Cn2ccnc2-c2cc(CN3CCCC3)cs2)cs1,8.552
CCC(SC)C(=O)N1CCC(n2cccn2)CC1 (stereo unspecified),-9.932
O=C(C1CCOC1)N1CCN(Cc2cccnc2)c2ncccc2C1 (stereo unspecified),-11.24
Cc1occc1C(=O)NCC(O)c1ccc(Cl)s1 (stereo unspecified),-2.837
[H][C@]12CC[C@]([H])(CN(Cc3ccccn3)C1)N(Cc1cc(C(C)(C)C)[nH]n1)C2,20.87
Cc1cnn(C2CN(CC(O)COc3ccc(C#N)cc3)C2)c1 (stereo unspecified),-4.489
CC(C(=O)N1CCCN(Cc2ccc(C#N)cc2)CC1)n1ccnc1 (stereo unspecified),-17.2
Cn1cnc(S(=O)(=O)N2CCCn3cnc(CN4CCCC4)c3C2)c1,-4.042
CC(C)N(C)C(=O)C1CCN(Cc2cc3c(cc2O)CCC3)CC1,-2.607
CC(C)c1nn(C)c(N(C)C)c1CNC1CCOc2ccccc21 (stereo unspecified),2.092
Cc1ccc(C(F)(F)F)cc1C(=O)N[C@H]1CN(CCO)C[C@@H]1C1CC1,2.669
Cc1cc(C)nc(N2CCC(C(=O)Nc3ncc[nH]3)CC2)n1,14.9
O=C(O)C(F)(F)F.[H][C@@]12CN(C(=O)c3ccsc3)C[C@]1([H])OCCN2C(C)C,-6.952
Cn1cccc1C(=O)N1CCCCC1c1ccn2ccnc2n1 (stereo unspecified),-18.89
CO[C@H]1CN(C(=O)OC(C)(C)C)CC1NCc1ccoc1 (stereo partly specified),-9.323
Cc1nn(C)c2ncnc(NCC(O)CN3CCCCC3)c12 (stereo unspecified),-39.48
Cc1cccc(C2CCCCN2C(=O)CCCS(C)(=O)=O)c1C (stereo unspecified),-20.16
O=C(NS(=O)(=O)c1ccccc1)c1ccccc1F,1.885
OC(CN1CCN(CCOCC(F)(F)F)CC1)c1ccccc1 (stereo unspecified),26.27
NC(=O)c1ccc(CNC(=O)NCc2cc[nH]n2)cc1,9.793
Cc1n[nH]c(C)c1CCC(=O)N1CCc2c(nc[nH]c2=O)C1,-7.587
Nc1ncnc2[nH]c(N3CCCCC3)nc12,6.773
CC(=O)Nc1ccc(CNC2COc3c2ccc(C)c3C)cc1 (stereo unspecified),-7.684
CN1CC2(CCN(C(=O)c3ccc(-n4cccn4)cc3Cl)C2)OC1=O (stereo unspecified),-23.36
COCCNC(=O)C1CC(=O)N(c2n[nH]c3cccc(F)c23)C1 (stereo unspecified),-6.432
[H][C@@]12CCCO[C@]1([H])[C@H](OCC1CC1)CN2C(=O)c1occc1C,-4.197
Cc1cc(C2CCCN2C(=O)Cn2c(C)cc(=O)c3ccccc32)on1 (stereo unspecified),1.165
CN(C)CCOCC1CN(Cc2ccncc2)Cc2nnn(C)c21.O=C(O)C(F)(F)F.O=C(O)C(F)(F)F.O=C(O)C(F)(F)F (stereo unspecified),4.997
[H][C@]12CC(COCC)C[C@]1([H])N(C(=O)c1ccc[nH]1)CCO2 (stereo partly specified),21.06
O=C(O)C(F)(F)F.O=C(O)C(F)(F)F.[H][C@@]12CN(Cc3cccs3)CCC[C@]1(C(=O)OCC)CN(CCOC)C2,0.8221
O=C(O)CSc1nnc(-c2ccn[nH]2)n1-c1ccccc1C(F)(F)F,-4.535
CN1CCN(C(=O)NC2CCCC2)Cc2cccnc21.O=C(O)C(F)(F)F,-24.11
Cc1cc(C2CCCN2C(=O)COc2ccc(CC#N)cc2)no1 (stereo unspecified),-19.93
COC(=O)c1ccc2c(-c3ccnc(NCCO)n3)c[nH]c2c1,-4.7
COc1cc(C)c(C(C)Nc2ncc(C(N)=O)cc2Cl)cc1OC (stereo unspecified),-25.94
Cc1cc(C)n(CC2CCCN2C(=O)c2ccc3c(c2)OCCO3)n1 (stereo unspecified),20.33
CC(C)CC(=O)N1CC(=O)c2sc(Nc3ccc(C#N)cc3)nc2C1,-4.289
CC(C)(C)CC(=O)NC[C@H]1OC[C@@H](NCc2ccccn2)[C@@H]1O,-8.006
COc1cccc(Nc2nc(C3CCNCC3)c3sc(C)c(C)n23)c1.Cl,-7.728 & 1.674
O=C(O)C(F)(F)F.O=C1CC[C@]2(CC[C@@H](NC3CCOCC3)CC2)N1Cc1ccccc1,11.5
Cn1cc2ncn(C3CCN(c4ccccc4F)CC3)c(=O)c2n1,-4.755
O=C(O)C(F)(F)F.O=C1COC2(CCN(Cc3ccoc3)CC2)CN1c1ccccc1,-1.565
O=C(Nc1cnn(COc2ccc(F)cc2Cl)c1)C1CC1,-0.6188
CCn1c(N)nc2cc(C(=O)NCCNc3ncccc3C)cnc21,20.05
CCc1nc(C)c(CN2CCN(c3ncnc4scc(C)c34)CC2)[nH]1,-10.87
O=C(N1CCC2(CC1)[C@H](O)C[C@@H]2O)C1(c2ccccc2F)CC1,-12.33
CC(C)(C)OC(=O)NC1CCCN(Cc2cccc(O)c2)C1 (stereo unspecified),10.19
CC(C)Oc1ccc(CN2CCC(Cc3nnc(CO)n3C)CC2)cc1,-12.49

The values are deposited in ChEMBL (CHEMBL3988442, “University of Dundee, Small-Polar-MMV Screening Library” (2021)).